Values quoted from earlier work, collected in patent US11504319B2, “Process of coloring keratinous material comprising the use of an organosilicon compound, an effect pigment, a further coloring compound and a film-forming polymer III” (Henkel AG & Co. KGaA, priority 2019, dated 2022).

Conditions: 25° C.

solubility in water: more than 20 % by weight
Structure (SMILES): CCN(Cc1cccc(S(=O)(=O)[O-])c1)c1ccc(C(=C2C=CC(=[N+](CC)Cc3cccc(S(=O)(=O)[O-])c3)C=C2)c2ccccc2S(=O)(=O)[O-])cc1.[Na+].[Na+] [Acid Blue 9]
